Measurements published in patent US20090099123A1, “Antisense microRNA and uses therefor” (priority 2007, published 2009).
At least one compound was matched to its structure with a doubt left.

Assays:
miR-27a = miR-27a levels in cancer cells treated with compounds (Northern blot); type: cell-based
[1] = tested on: prostate and pancreatic tumors and cells; conditions: cited from earlier work

C=C(C)[C@@H]1CC[C@]2(C(=O)O)CC[C@]3(C)[C@H](CC[C@@H]4[C@@]5(C)CC[C@H](O)C(C)(C)[C@@H]5CC[C@]43C)[C@@H]12 [betulinic acid]
miR-27a levels (miR-27a; RKO cells): decreased | levels of miR-27a RNA (miR-27a; breast, colon, pancreatic and kidney cancer cells): decreased | growth of prostate and pancreatic tumors and cells [1]: inhibit growth
